{"source": "PubChem BioAssay AID1259405 (NCATS, 2018)", "purpose": "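Silenced genes that increase secreted GFP made by CHO cells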 (primary screen)", "cell system": "Chinese hamster CHO-K1 ovary cells with stable secreted eGFP expression", "reagent": "single siRNA against mouse genes, 0.8 pmol siRNA per well (2 µl of 400 nM stock)", "duration": "3 days", "detection": "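Percent of the per-plate non-targeting control median for intracellular GFP per well by laser scanning cytometry and for cell viability by ATP luminescence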", "direction": "GFP, % of control: higher = more GFP per well, higher productivity; viability (ATP), % of control: higher = more viable cells (more ATP)", "hit rule": "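a knock-down is called active if GFP reaches 120% or more of non-targeting control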", "note": "The whole screen tested about 50,000 reagents; shown is an unselected part. About 4,000 of all reagents (8%) were called active. 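Mouse siRNA library applied to hamster cells; one well for each siRNA.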 The numbers tell different reagents against one gene apart."}
{"gene knocked down":"Stk38","reagent":1,"GFP, % of control":99.3,"viability (ATP), % of control":95.8,"outcome":"inactive"}
{"gene knocked down":"Stk38","reagent":2,"GFP, % of control":80.4,"viability (ATP), % of control":66.1,"outcome":"inactive"}
{"gene knocked down":"Stk38","reagent":3,"GFP, % of control":94,"viability (ATP), % of control":64.8,"outcome":"inactive"}
{"gene knocked down":"Psmd3","reagent":1,"GFP, % of control":272,"viability (ATP), % of control":104,"outcome":"active"}
{"gene knocked down":"Psmd3","reagent":2,"GFP, % of control":61.4,"viability (ATP), % of control":47.8,"outcome":"inactive"}
{"gene knocked down":"Psmd3","reagent":3,"GFP, % of control":57.8,"viability (ATP), % of control":49,"outcome":"inactive"}
{"gene knocked down":"Psmd3","reagent":4,"GFP, % of control":119,"viability (ATP), % of control":81.8,"outcome":"inactive"}
{"gene knocked down":"Psmd3","reagent":5,"GFP, % of control":91.3,"viability (ATP), % of control":82.6,"outcome":"inactive"}
{"gene knocked down":"Psmd3","reagent":6,"GFP, % of control":119,"viability (ATP), % of control":67,"outcome":"inactive"}
{"gene knocked down":"Gsto2","reagent":1,"GFP, % of control":23.5,"viability (ATP), % of control":42.8,"outcome":"inactive"}
{"gene knocked down":"Gsto2","reagent":2,"GFP, % of control":47.9,"viability (ATP), % of control":77.6,"outcome":"inactive"}
{"gene knocked down":"Gsto2","reagent":3,"GFP, % of control":93.4,"viability (ATP), % of control":89.4,"outcome":"inactive"}
{"gene knocked down":"Krt86","reagent":1,"GFP, % of control":74.1,"viability (ATP), % of control":83.4,"outcome":"inactive"}
{"gene knocked down":"Krt86","reagent":2,"GFP, % of control":45.9,"viability (ATP), % of control":62.6,"outcome":"inactive"}
{"gene knocked down":"Zfp691","reagent":1,"GFP, % of control":59.5,"viability (ATP), % of control":57.7,"outcome":"inactive"}
{"gene knocked down":"Zfp691","reagent":2,"GFP, % of control":73.2,"viability (ATP), % of control":96.4,"outcome":"inactive"}
{"gene knocked down":"Gatb","reagent":1,"GFP, % of control":76.7,"viability (ATP), % of control":70.8,"outcome":"inactive"}
{"gene knocked down":"Gatb","reagent":2,"GFP, % of control":114,"viability (ATP), % of control":87.4,"outcome":"inactive"}
{"gene knocked down":"Gatb","reagent":3,"GFP, % of control":98.6,"viability (ATP), % of control":125,"outcome":"inactive"}
{"gene knocked down":"Bhlha9","reagent":1,"GFP, % of control":91.6,"viability (ATP), % of control":81.6,"outcome":"inactive"}
{"gene knocked down":"Bhlha9","reagent":2,"GFP, % of control":44.2,"viability (ATP), % of control":66.4,"outcome":"inactive"}
{"gene knocked down":"Bhlha9","reagent":3,"GFP, % of control":97.6,"viability (ATP), % of control":123,"outcome":"inactive"}
{"gene knocked down":"Mllt6","reagent":1,"GFP, % of control":48.1,"viability (ATP), % of control":40.6,"outcome":"inactive"}
{"gene knocked down":"Mllt6","reagent":2,"GFP, % of control":92.5,"viability (ATP), % of control":71.5,"outcome":"inactive"}
{"gene knocked down":"Mllt6","reagent":3,"GFP, % of control":118,"viability (ATP), % of control":115,"outcome":"inactive"}
{"gene knocked down":"Krt6a","reagent":1,"GFP, % of control":78.6,"viability (ATP), % of control":84.8,"outcome":"inactive"}
{"gene knocked down":"Krt6a","reagent":2,"GFP, % of control":114,"viability (ATP), % of control":116,"outcome":"inactive"}

Laid out differently: entries from further up
gene knocked down	reagent	GFP, % of control	viability (ATP), % of control	outcome
Mllt6	1	48.1	40.6	inactive
Mllt6	2	92.5	71.5	inactive
Mllt6	3	118	115	inactive
Krt6a	1	78.6	84.8	inactive
